Results: PubChem BioAssay AID2685 (National Center for Advancing Translational Sciences (NCATS), 2010)
The list shows a part of the results. These are further read-outs of the screen, such as a control signal, another cell line or another target. No call is given for them. Compounds called inactive in the main read-out are mostly missing here. The note in brackets gives the kind of curve behind each potency; many fits are weak.

Assay: qHTS Assay for Lipid Storage Modulators in Drosophila S3 Cells;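 on cell number change: cells counted by Cell Tracker Red CMTPX staining in the red channel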
Conditions: BODIPY lipid droplet fluorescence, 18-24 h; for cell number change: measured here: cell count max response, cells fed with added oleic acid
Procedure, shortened: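 Drosophila S3 cells got compounds at several concentrations plus oleic acid (400 uM solution). Laser-scanning cytometry with 488 nm excitation read lipid droplets at 500-530 nm and cells at 575-640 nm. Percent activity was relative to 20 uM Triacsin C.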

[1] = measured here: lipid fluorescence (Fed channel) AC50, cells fed with added oleic acid
[2] = measured here: cell number channel AC50, cells fed with added oleic acid

SMILES | cell number change [%] | AC50 [1] | AC50 [2]
COC(=O)c1ccc(CN2CCCC(CCC(=O)NCc3ccc(C)o3)C2)cc1 (stereo unspecified) | 14.9 | 1.84 µM [rising, partial curve] | 
O=C(Cn1nnc(-c2ccccc2F)n1)Nc1ccc2c(c1)OCO2 | -5.78 |  | 
Nc1nnc(SCC(=O)Nc2ccc3c(c2)OCCO3)s1 | 24.8 | 29.1 µM [rising, single point] | 
CN(NS(C)(=O)=O)c1c(C#N)c(C(F)(F)F)nn1C |  | 4.61 µM [falling, single point] | 
CCOC(=O)c1c(C)n(OC)c2ccc3c(no[n+]3[O-])c12 | 23.7 | 0.517 µM [falling, single point] | 
CC(O)CNCCOc1cccc(Oc2ccccc2)c1 (stereo unspecified) | -43.7 | 6.51 µM [falling, full curve] | 6.51 µM [falling, partial curve]
CCn1c(SCC(=O)c2c(N)n(C)c(=O)n(C)c2=O)nc2sc(C)c(C)c2c1=O | 73.2 |  | 16.4 µM [rising, single point]
Cc1cccc(N2C(=O)CC(Sc3nccc(C)n3)C2=O)c1 (stereo unspecified) | 21.6 | 6.51 µM [rising, single point] | 
CSCCC(NC(=O)c1ccccc1Cl)C(=O)NCC(c1cccs1)N(C)C (stereo unspecified) | -8.33 |  | 
CCC(C)c1ccccc1OCCn1ccnc1 (stereo unspecified) | 50.5 |  | 1.16 µM [rising, partial curve]
Cc1cc(C(=O)Cn2nc(C(=O)O)c3ccccc3c2=O)c(C)n1CC(F)(F)F | -9.86 |  | 
CCOC(=O)N1CCC(Nc2c(-c3ccc(C)c(C)c3)c(=O)c2=O)CC1 |  | 16.4 µM [falling, partial curve, poor fit] | 
O=C(NCc1cccs1)C1CCN(S(=O)(=O)c2ccc(Br)s2)CC1 | 58.5 |  | 20.6 µM [rising, single point]
CCN(CC)CCNCc1ccc(Br)cc1OCC(=O)NCc1ccccc1 | -2.12 |  | 
CN(c1ccc(OCC(=O)Nc2ccc3[nH]c(=O)[nH]c3c2)cc1)S(=O)(=O)c1ccc(Cl)cc1 | 50.1 | 5.8 µM [falling, single point] | 25.9 µM [rising, single point]
CC1(C)CC(=O)C2=C(C1)N(c1cccnc1)C(N)=C(C#N)C2c1cccs1 (stereo unspecified) | 5.36 | 20.6 µM [rising, single point] | 
Cc1ccc(NC(=O)c2ccc3nc[nH]c3c2)c(O)c1 | -21.2 | 0.00461 µM [falling, full curve, poor fit] | 0.0058 µM [falling, full curve, poor fit]
Cc1cc(-c2ccco2)c(C#N)c2nc3ccccc3n12 | -34.3 |  | 2.31 µM [falling, full curve]
CCOc1ccc(Cn2c(=O)oc3ccccc32)cc1 | -11.6 | 0.103 µM [rising, full curve, poor fit] | 
c1coc(-c2nnc(SCc3cn4ccccc4n3)o2)c1 | 48 |  | 0.00461 µM [rising, full curve, poor fit]
Cc1ccc(C(=O)N/N=C\c2cccn2C)cn1 | -5.75 |  | 

16 of the compounds above, with tabs:
SMILES	cell number change [%]	AC50 [1]	AC50 [2]
COC(=O)c1ccc(CN2CCCC(CCC(=O)NCc3ccc(C)o3)C2)cc1 (stereo unspecified)	14.9	1.84 µM [rising, partial curve]	
O=C(Cn1nnc(-c2ccccc2F)n1)Nc1ccc2c(c1)OCO2	-5.78		
Nc1nnc(SCC(=O)Nc2ccc3c(c2)OCCO3)s1	24.8	29.1 µM [rising, single point]	
CCn1c(SCC(=O)c2c(N)n(C)c(=O)n(C)c2=O)nc2sc(C)c(C)c2c1=O	73.2		16.4 µM [rising, single point]
Cc1cccc(N2C(=O)CC(Sc3nccc(C)n3)C2=O)c1 (stereo unspecified)	21.6	6.51 µM [rising, single point]	
CSCCC(NC(=O)c1ccccc1Cl)C(=O)NCC(c1cccs1)N(C)C (stereo unspecified)	-8.33		
CCC(C)c1ccccc1OCCn1ccnc1 (stereo unspecified)	50.5		1.16 µM [rising, partial curve]
Cc1cc(C(=O)Cn2nc(C(=O)O)c3ccccc3c2=O)c(C)n1CC(F)(F)F	-9.86		
CCOC(=O)N1CCC(Nc2c(-c3ccc(C)c(C)c3)c(=O)c2=O)CC1		16.4 µM [falling, partial curve, poor fit]	
O=C(NCc1cccs1)C1CCN(S(=O)(=O)c2ccc(Br)s2)CC1	58.5		20.6 µM [rising, single point]
CCN(CC)CCNCc1ccc(Br)cc1OCC(=O)NCc1ccccc1	-2.12		
CN(c1ccc(OCC(=O)Nc2ccc3[nH]c(=O)[nH]c3c2)cc1)S(=O)(=O)c1ccc(Cl)cc1	50.1	5.8 µM [falling, single point]	25.9 µM [rising, single point]
CC1(C)CC(=O)C2=C(C1)N(c1cccnc1)C(N)=C(C#N)C2c1cccs1 (stereo unspecified)	5.36	20.6 µM [rising, single point]	
Cc1cc(-c2ccco2)c(C#N)c2nc3ccccc3n12	-34.3		2.31 µM [falling, full curve]
c1coc(-c2nnc(SCc3cn4ccccc4n3)o2)c1	48		0.00461 µM [rising, full curve, poor fit]
Cc1ccc(C(=O)N/N=C\c2cccn2C)cn1	-5.75		

Continued.

SMILES | cell number change [%] | AC50 [1] | AC50 [2]
Cc1c(C(=O)N2CCN(c3ccccc3)CC2)sc2ncnc(N3CCC(C)CC3)c12 |  | 6.51 µM [rising, single point] | 
CCN(CC)S(=O)(=O)N1CCC(C(=O)NCc2ccc3c(c2)OCO3)CC1 | 28.4 | 9.2 µM [rising, partial curve] | 
COc1ccc(-n2nc(C(=O)NCC(=O)Nc3cc(C)ccc3OC)c3ccccc3c2=O)c(OC)c1 | 87.8 |  | 20.6 µM [rising, partial curve]
CCCCS(=O)(=O)Nc1ccc(C(=O)NCC2CCCO2)cc1 (stereo unspecified) |  | 0.259 µM [falling, full curve] | 
Cc1ccc(-n2c(Cc3cccs3)nnc2SCC(N)=O)cc1 | -14.2 | 0.517 µM [falling, single point] | 
O=C1C(=O)c2ccccc2C(O)=C1C1CCC(c2ccc(Cl)cc2)CC1 (stereo unspecified) |  | 4.61 µM [falling, full curve] | 
Cc1ccc(CN=C(N)Nc2nc(C)cc(C)n2)cc1 | -43.4 | 25.9 µM [falling, partial curve, poor fit] | 23.1 µM [falling, single point]
CCCCNC(=O)c1cc2ccccc2s1 | 50.1 | 3.26 µM [rising, full curve] | 6.51 µM [rising, full curve]
COc1ccc(S(=O)(=O)NC(C)C(=O)N2CCCC2)cc1Cl (stereo unspecified) | 6.87 | 23.1 µM [falling, single point] | 
Clc1ccc2nc(-c3ccc(Br)s3)cn2c1 | 135 | 23.1 µM [rising, single point] | 29.1 µM [rising, single point]
CCOc1ccc(N(CC(=O)Nc2cccc(Br)c2)S(C)(=O)=O)cc1 | -36.5 |  | 
Cc1ccc(N(C)S(=O)(=O)c2ccc3[nH]cc(C(=O)NCCCN4CCOCC4)c(=O)c3c2)cc1C | 13.9 | 0.13 µM [falling, full curve, poor fit] | 
O=C(NCc1ccc2c(c1)OCO2)c1ccc(COc2cccc(Cl)c2)o1 | 17.3 | 0.461 µM [rising, single point] | 
Cc1ccc(C)c(OCc2cc(C(=O)N3CCN(c4ccccc4C)CC3C)no2)c1 (stereo unspecified) | 10.3 | 6.51 µM [rising, partial curve, poor fit] | 1.84 µM [rising, partial curve, poor fit]
C=CCn1c(O)c(C(CC)=Nc2ccccc2NC(=O)CC)c(=O)[nH]c1=O | 13.1 | 0.651 µM [falling, single point] | 
CCCCn1c(N)c(-c2nc3ccccc3o2)c2c([N+](=O)[O-])nn(C)c(=O)c21 | 5.88 | 29.1 µM [falling, single point] | 
O=C1[C@@H]2C(c3cccnc3)=NO[C@@H]2C(=O)N1c1ccc2ccccc2c1 | -3.94 | 0.82 µM [falling, single point] | 
Cc1ccccc1-n1nc(C(=O)O)cc1-c1ccccc1 |  | 6.51 µM [falling, single point] | 
O=C(CN1CCN(S(=O)(=O)c2ccc(F)cc2)CC1)Nc1ccc(F)cc1F | 9.23 |  | 
CCOc1ccccc1-c1nc(C(N)=O)c2[nH]c(=O)n(-c3ccc(F)cc3)c2n1 | 74.7 | 29.1 µM [falling, single point] | 29.1 µM [rising, single point]
CCCC(=O)C1CCN(Cc2ccccc2)CC1 | -0.642 | 1.64 µM [falling, partial curve] | 

SMILES | cell number change [%] | AC50 [1] | AC50 [2]
Cc1ccc(S(=O)(=O)N2CCOCC2)cc1NC(=O)COC(=O)C1COc2ccccc2O1 (stereo unspecified) | 5.89 |  | 
Cc1ccc(C)c(N2CC(=O)N(c3cc(C)ccc3C)CC2=O)c1 | -42.4 | 29.1 µM [falling, single point] | 25.9 µM [falling, single point]
COc1ccccc1C(=O)Nc1ccc(OC(C)C(=O)N2CCOCC2)cc1 (stereo unspecified) | 7.92 |  | 0.0092 µM [rising, full curve, poor fit]
O=c1c2ccccc2nc(SCc2cc(F)cc3c2OCOC3)n1Cc1ccco1 | 7.81 |  | 
Cn1cc(C2CC(c3ccccc3)=NN2C(=O)c2ccccc2)c2ccccc21 (stereo unspecified) | -24.2 |  | 
Cc1ccc(NC(=O)CCOc2ccccc2)c(C)c1 | 11 | 0.092 µM [rising, full curve] | 
CCOc1ccccc1OCCCC(=O)N(CC)CC(=O)Nc1c(F)cccc1F | -29.5 | 16.4 µM [falling, partial curve, poor fit] | 
O=C(NCc1ccc(Cl)cc1)c1cccc(NC(=O)c2ccccc2)c1 | 29.6 | 2.06 µM [rising, full curve] | 
CC(=O)Nc1ccccc1OCC(=O)c1ccc2c(c1)OCO2 | -17.3 |  | 
CC(=O)c1cccc(NC(=O)NC(C)c2ccc3c(c2)OCO3)c1 (stereo unspecified) | -34.9 | 35.5 µM [falling, single point] | 
C=CCOC(=O)C1=C(C)OC(N)=C(C#N)C1c1c(C)nn(-c2ccccc2)c1Cl (stereo unspecified) | -36.4 | 16.4 µM [falling, partial curve, poor fit] | 23.1 µM [falling, partial curve]
CN1CCN(c2nc(N3CCN(CCO)CC3)nc3ccccc23)CC1 | -12.9 | 29.1 µM [rising, single point] | 
O=C(/C=C/Nc1ccc(Oc2ccccc2)cc1)c1ccco1 | -39.4 |  | 18.4 µM [falling, partial curve, poor fit]
CC1=NN(c2ccc(Cl)cc2)C(=O)/C1=C\c1cccn1-c1ccc(S(N)(=O)=O)cc1 | -11.7 | 0.651 µM [rising, single point] | 
COC(=O)CSc1ncnc2scc(-c3ccccc3)c12 | 39.2 | 9.2 µM [rising, partial curve] | 8.2 µM [rising, partial curve]
CC(C)CN1C(=O)c2ccc(C(=O)Nc3nccs3)cc2C1=O | -17.6 | 1.03 µM [rising, single point] | 
CC(C)S(=O)(=O)C1=NSC2=NC(=O)/C(=C\c3ccc(-c4cccc(C(=O)O)c4)o3)C(=N)N21 | -17.5 |  | 
CCOC(=O)Cn1cnc2c(cnn2-c2ccccc2)c1=O | -5.59 |  | 6.51 µM [falling, single point]
CSc1ccc(/C=C/C(=O)OCC(=O)NC2CC2)cc1 | -12.9 | 3.26 µM [rising, partial curve, poor fit] | 
COc1ccccc1OCCNC(=O)c1cccc(S(=O)(=O)N2CC(C)OC(C)C2)c1 (stereo unspecified) | -9.67 |  | 

Full records from above.
Cn1cc(C2CC(c3ccccc3)=NN2C(=O)c2ccccc2)c2ccccc21 (stereo unspecified) in the list: cell number change [%]: -24.2
CN1CCN(c2nc(N3CCN(CCO)CC3)nc3ccccc23)CC1 in the list: cell number change [%]: -12.9; AC50 [1]: 29.1 µM [rising, single point]
